For three molecules, binding results are on record in US20230295330A1 (Seagen, published 2023).

Test [1] has as its target T1, human CD228 (R&D Systems Custom02; Lot DCWR021505A) (human) (UniProt P08582).
T1 sequence (looked up): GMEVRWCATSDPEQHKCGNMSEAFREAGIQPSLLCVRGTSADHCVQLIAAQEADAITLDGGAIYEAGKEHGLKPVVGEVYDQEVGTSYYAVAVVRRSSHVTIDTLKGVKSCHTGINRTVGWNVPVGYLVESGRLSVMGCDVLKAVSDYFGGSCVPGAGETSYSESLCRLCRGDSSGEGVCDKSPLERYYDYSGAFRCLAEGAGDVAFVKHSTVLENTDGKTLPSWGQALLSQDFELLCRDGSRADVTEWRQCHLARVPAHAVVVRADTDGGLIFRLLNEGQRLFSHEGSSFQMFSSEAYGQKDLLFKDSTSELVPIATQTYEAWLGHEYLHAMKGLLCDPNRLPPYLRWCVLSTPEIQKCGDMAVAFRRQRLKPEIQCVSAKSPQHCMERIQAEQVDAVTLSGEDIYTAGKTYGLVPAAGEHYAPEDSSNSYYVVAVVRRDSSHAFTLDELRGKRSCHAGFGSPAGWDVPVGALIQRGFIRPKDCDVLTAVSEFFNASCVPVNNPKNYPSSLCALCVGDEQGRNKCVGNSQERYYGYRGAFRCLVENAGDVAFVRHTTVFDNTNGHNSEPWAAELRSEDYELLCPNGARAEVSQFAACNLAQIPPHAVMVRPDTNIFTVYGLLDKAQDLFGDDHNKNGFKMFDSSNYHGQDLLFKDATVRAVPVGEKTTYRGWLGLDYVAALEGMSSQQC
The experiment in a line: BLI (Octet Red 384), antibody as ligand on the sensor, CD228 antigen as analyte. A general note: BLI is a label-free optical method that tracks binding on a fibre tip over time.

The target in test [2] is T1, human CD228 (R&D Systems Custom02; Lot DCWR021505A) (human). Nature of the test: ELISA, plate-coated human CD228, antibody titrated in citrate-phosphate buffer at pH 4.55, 5.60, 6.30 and 7.40, anti-human IgG Fc-HRP, OD 450 nm. Background: In an ELISA, binding on a coated surface is turned into a signal by an enzyme label.
For test [3] the target is unchanged. The experiment in a line: ELISA, coated human CD228, pH 4.55 to 7.4.
Test [4] has the same target. Nature of the test: BLI (Octet Red 384), antibody as ligand, antigen as analyte.

Residue numbers refer to the chain shown, from its start. Results are given in words; binding and its absence hold for the method and conditions named. Some entries that bind do so weakly or less than the wild type.

B1: hL49 (antibody, V domains shown)
VH: QVQLQESGPGLVKPSETLSLTCTVSGDSITSGYWNWIRQPPGKGLEYIGYISDSGITYYNPSLKSRVTISRDTSKNQYSLKLSSVTAADTAVYYCARRTLATYYAMDYWGQGTLVTVSS
VL: DFVMTQSPLSLPVTLGQPASISCRASQSLVHSDGNTYLHWYQQRPGQSPRLLIYRVSNRFSGVPDRFSGSGSGTDFTLKISRVEAEDVGVYYCSQSTHVPPTFGQGTKLEIK
notes: Humanized antibody; Only variable domains are tied to it; also called hL49 HALC; hL49 WT
Turning to B1, the binding result in test [1] and in test [2] was “binds” each time.

B2: hL49_34_Ala (antibody, V domains shown)
VH: B1 VH
VL: B1 VL with H39A
notes: hL49 variant with the light chain CDR-L1 histidine 34 changed to alanine; also called hL49_H34A
As to B2, the binding entry in test [3], in test [4], in test [1] and in test [2] was “binds” each time.

B3: hL49_34_Tyr (antibody, V domains shown)
VH: B1 VH
VL: B1 VL with H39Y
notes: hL49 variant with the light chain CDR-L1 histidine 34 changed to tyrosine; also called hL49_H34Y; hL49_Tyr
Take B3: the binding entry in test [4] and in test [1] was “binds” throughout.
